In US12703851B2, “Cell culture methods” (The University of Massachusetts, priority 2019, dated 2026):

What was measured:
CHO-K1 cell line = assay: Inhibitory metabolite accumulation, CHO-K1 fed-batch process (LC-MS of culture supernatant); assay type: cell-based, Chinese hamster; conditions: for Conc.: Table 2, CHO cell process; for Inhibitory metabolite accumulation: CHO K1 fed batch
CHO K1 = assay: Inhibitory metabolite accumulation, CHO K1 batch process (LC-ESI-MS); assay type: cell-based, Chinese hamster; conditions: for Inhibitory metabolite accumulation Conc.: CHO K1, batch culture, after 6 days; for Inhibitory metabolite accumulation: CHO K1 batch, Day 6
CHO GS = assay: Inhibitory metabolite accumulation, CHO GS batch process (LC-ESI-MS); assay type: cell-based, Chinese hamster; conditions: batch culture, after 6 days
HEK 293 = assay: Inhibitory metabolite accumulation, HEK 293 batch process (LC-ESI-MS); assay type: cell-based, human; conditions: HEK 293, batch culture, after 6 days

SMILES	Conc. (CHO-K1 cell line)	Inhibitory metabolite accumulation (CHO-K1 cell line; Day 5)	Inhibitory metabolite accumulation (CHO-K1 cell line; Day 8)	Inhibitory metabolite accumulation (CHO-K1 cell line; Day 14)	Inhibitory metabolite accumulation Conc. (CHO K1)	Inhibitory metabolite accumulation (CHO K1)	Inhibitory metabolite accumulation Conc. (CHO GS)	Inhibitory metabolite accumulation Conc. (HEK 293)
Nc1nc2c(ncn2[C@@H]2O[C@H](COP(=O)(O)O)[C@@H](O)[C@H]2O)c(=O)[nH]1 [GMP, Guanosine monophosphate]	20 µM							
CC(CC(=O)O)C(=O)O (centres unmarked) [MSA, methylsuccinic acid]	13.59 µM	1.3 µM	5.62 µM	13.59 µM	3.97 µM	3.97 µM	2.59 µM	1.55 µM
CC(=O)NCCCCN [NAP, N-acetylputrescinium]	0.196 µM	0.096 µM	0.178 µM	0.196 µM	0.16 µM	0.164 µM	0.20 µM	0.17 µM
Nc1ccn([C@@H]2O[C@H](COP(=O)(O)O)[C@@H](O)[C@H]2O)c(=O)n1 [CMP, cytidine-5′-monophosphate]	11.27 µM	1.14 µM	5.82 µM	11.27 µM	11.69 µM	11.69 µM	78.51 µM	2.43 µM
O=C(O)c1c[nH]c2ccccc12 [ICA, indole-3-carboxylic acid, reference compound]	2.5 µM							
CC(C)CC(O)C(=O)O (stereo not drawn) [HICA, α-hydroxyisocaproic acid]	64.09 µM	8.53 µM	26.95 µM	64.09 µM	10.62 µM	10.62 µM	31.63 µM	53.80 µM
O=C(O)C=C(CC(=O)O)C(=O)O [AA, aconitic acid]	14359 µM	1238 µM	4026 µM	14359 µM	1910.00 µM	1910 µM	717.42 µM	984.53 µM
C[n+]1cccc(C(=O)[O-])c1 [TRI, trigonelline]	0.812 µM	0.018 µM	0.132 µM	0.812 µM	0.09 µM	0.085 µM	0.81 µM	0.02 µM
